## Library screening results

Source: ChEMBL document CHEMBL3988442, “University of Dundee, Small-Polar-MMV Screening Library” (2021).

Values are the deposited “Percent Effect”, in %. The record does not define 0% and 100%; most values in the screen are far below 50% and negative numbers occur (in some assays of this library far below -100). The compounds are a random part of those screened. A dash means the value is not listed here; it may have been measured.

Mtb heat-shock: 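Assay on Mycobacterium tuberculosis, filed only as a heat shock assay from Cornell; the read-out is not stated. The concentration is filed as 10 mM, unlikely as a test dose, so the dose is not known. Higher reads as stronger inhibition (inferred: compounds with an IC50 in retests scored well above the rest). Of about 69,000 compounds tested this way, about 930 (1.4%) reached 50% or more in at least one test.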
Mtb growth Cornell: 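Whole-cell assay for inhibitors of Mycobacterium tuberculosis growth, labelled Cornell in the record; the read-out is not stated. The concentration is filed as 10 mM, unlikely as a test dose, so the dose is not known. The record gives no direction; compounds strong in two other growth screens of this library score well above the rest, so higher reads as stronger inhibition. About 53,000 compounds were tested under these conditions; 1.7% (about 900) showed 50% or more at least once.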

structure | Mtb heat-shock | Mtb growth Cornell
COCC1c2nnn(CC3CC3)c2CCN1C(=O)c1cc(C)on1 (stereo not drawn) | 9.302 | -15.31
CC(C)C(=O)N1CCC2(CCCN(CCOc3ccccc3)C2)C1 (stereo not drawn) | -25.79 | 11.39
Cc1nc(CN2CC3(CCN(c4nccs4)C3)CC2=O)cs1 (stereo not drawn) | -31.09 | 21.61
CCn1nc(C)c(S(=O)(=O)N(C)c2ccc(Cl)cn2)c1C | -5.209 | -
CN(CCc1cccs1)C(=O)Nc1ccc2c(c1)C(=O)N(C)CC2 | -1.724 | -0.9605
COCC(=O)N1CCCC2(CCN(c3ccsc3)C2=O)C1 (stereo not drawn) | -16.69 | -
CNS(=O)(=O)c1ccc(CNC(=O)c2ccccn2)cc1 | 30.38 | -22.58
[H][C@@]12C[C@H](C)O[C@]1([H])CCN(C(=O)C1=CCCC1)C2 | 11.68 | -
O=C(Nc1ccnc2ccnn12)c1ccc(NC2CC2)nc1 | 13.53 | -11.01
CC(C)=CCC/C(C)=C/CN1CCN(C)C2(CCNC(=O)CC2)C1 (stereo not drawn) | 2.478 | 11.66
Cn1cc(CN2CCCC23CCN(Cc2nccn2C)CC3)cn1.O=C(O)C(F)(F)F.O=C(O)C(F)(F)F | -17.58 | -8.373
CN1CCC(NC(=O)Nc2ccc(Br)c(F)c2)C1=O (stereo not drawn) | -10.36 | 8.703
O=C(N[C@H]1CN(C2CCOCC2)C[C@@H]1C1CC1)c1cc(O)no1 | 17.79 | -34.19
O=C(O)C(F)(F)F.O=C(O)C(F)(F)F.[H][C@]12C[C@@H](CN3CCCC3)N(c3nccs3)[C@@]1([H])CCN(C(C)=O)C2 | 0.8954 | 10.44
COc1ccccc1CC(=O)NS(=O)(=O)c1ccc(NC(C)=O)cc1 | 16.95 | -
Cc1cnc(C(=O)N2CCC(COCc3ccccc3)C2)cn1 (stereo not drawn) | 17.56 | 4.119
COc1ccc(C(=O)C2CCCN(Cc3cc(C)n[nH]3)C2)c(OC)c1 (stereo not drawn) | -12.62 | 19.15
NC(=O)C(NC(=O)COC1CCCCC1)c1ccccc1 (stereo not drawn) | -12.94 | 22.67
CN(Cc1nccn1C)S(=O)(=O)c1cccc(C#N)c1 | 31.42 | -9.748
CNc1ccc(CC2CCCN(C(=O)c3cncnc3C)C2)nn1 (stereo not drawn) | 5.346 | -
[H][C@@]12CCN(Cc3cnn(C)c3)C[C@@]1([H])[C@H](C(=O)NC1CCCC1)CCO2 | 0.3196 | 5.868
CC(C)(C)NC(=O)CNc1ccc(Br)cn1 | 9.171 | -
c1cc2ccc(N3CCN(Cc4ccc5c(c4)OCO5)CC3)nc2[nH]1 | -2.954 | 27.9
Cc1nc(CN2CCCN(CC(=O)Nc3cccnc3)CC2)no1 | -2.661 | -
CCc1ncc2c(n1)CN(Cc1nc(-c3cccnc3)no1)CC2 | 2.705 | -16.69
CC(Cn1ccnc1)NC(=O)NCCc1ccc2c(c1)OCCO2 (stereo not drawn) | -3.524 | -11.63
O=C1CC(c2cccc(O)c2)c2c(c(C(=O)O)cn2-c2ccccc2)N1 (stereo not drawn) | 0.1833 | -
Cc1occc1C(=O)N1CCC2(CC1)NC(=O)CC2c1cnn(C)c1 (stereo not drawn) | 1.707 | 1.472
O=C(O)C(F)(F)F.O=C(O)C(F)(F)F.[H][C@@]12C[C@@H](Oc3ccc(C)cc3)CN1CCN(C(=O)c1cccnc1)C2 | -8.149 | -
O=C(O)C(=O)O.c1cc(CN2CCC(c3ccc4c(c3)OCO4)CC2)ccn1 | -9.586 | -1.188
COc1ccc(OC)c(CNc2nnc(C(C)(C)C)o2)c1 | -1.242 | 19.14
COCC(=O)N1CCN(Cc2cc(-c3ccncc3)nn2C)CC1 | 2.759 | -1.023
COc1ccc(NC(=O)NC(C)Cn2cccn2)cn1 (stereo not drawn) | 0.2337 | -44.41
COc1ccc(CN(C)Cn2cc(C)n(-c3cc(C)on3)c2=O)cc1 | 8.019 | 14.05
Cc1nnc2n1CCN(Cc1csc(CC(=O)N(C)C)n1)C2 | 18.79 | -17.06
COc1cccc(CC(=O)N2CCC(O)(C(F)(F)F)C2)c1 (stereo not drawn) | 1.887 | 24.34
Cc1cc(C)c2c(c1)NC(=O)C2CC(=O)O (stereo not drawn) | -27.96 | -3.48
CCCc1ccc(OC23CCCN(CC2)C3)c(OC)c1 (stereo not drawn) | 85.22 | 51.62
CCCc1n[nH]c(C2CN(CCS(=O)(=O)CC)CCO2)n1 (stereo not drawn) | -4.776 | 7.233
Cc1nn(-c2ccccc2)c2nc(C(C)(C)CN3CCN(C)CC3)[nH]c12 | 11.06 | 22.38
CCOc1ccc2nc(CN3CCC(CNC(C)=O)C3)ccc2c1 (stereo not drawn) | 3.715 | -
CN(CC1CC1)C(=O)c1cc2c(c(S(N)(=O)=O)c1)CCC2 | -8.928 | 7.858
CNC(=O)CN1CCOC(c2ccccc2C(F)(F)F)C1 (stereo not drawn) | -35.22 | -1.803
Fc1ccc(CN2CCC(F)(F)C3(CCN(c4cnccn4)C3)C2)cc1.O=C(O)C(F)(F)F.O=C(O)C(F)(F)F (stereo not drawn) | 3.728 | -
CCN1CCN(C(=O)c2cc(-c3cccs3)cs2)CC1 | 22.2 | -34.63
COc1cc(C(=O)N2CCCS2(=O)=O)cc(Cl)c1OC | -11.48 | -
COc1ccnc(CN2CCC=C(C(C)NC(C)=O)C2)c1OC (stereo not drawn) | 1.692 | 10.55
O=S(=O)(CC1CCCCO1)Nc1cc(F)ccc1-n1cccn1 (stereo not drawn) | -12.95 | -
O=C1OCCC1N1CCN(C(=O)Cc2ccccc2Cl)CC1 (stereo not drawn) | -1.521 | -
CC(=O)NC1CCN(c2nc(N(C)C)nc3c2CCCC3)CC1 | 0.5098 | 0.3139